This experiment has as its target HA-tagged RUNX1A (doxycycline-inducible, in CMK cells) (human) (UniProt Q01196). The experiment can be described thus: affinity purification with mass spectrometry.

The chains behind the UniProt entries cited, without tags or fusion partners. Where a name states a change or a piece, a line headed by the entry shows the natural chain unless it says otherwise.
UniProt Q01196: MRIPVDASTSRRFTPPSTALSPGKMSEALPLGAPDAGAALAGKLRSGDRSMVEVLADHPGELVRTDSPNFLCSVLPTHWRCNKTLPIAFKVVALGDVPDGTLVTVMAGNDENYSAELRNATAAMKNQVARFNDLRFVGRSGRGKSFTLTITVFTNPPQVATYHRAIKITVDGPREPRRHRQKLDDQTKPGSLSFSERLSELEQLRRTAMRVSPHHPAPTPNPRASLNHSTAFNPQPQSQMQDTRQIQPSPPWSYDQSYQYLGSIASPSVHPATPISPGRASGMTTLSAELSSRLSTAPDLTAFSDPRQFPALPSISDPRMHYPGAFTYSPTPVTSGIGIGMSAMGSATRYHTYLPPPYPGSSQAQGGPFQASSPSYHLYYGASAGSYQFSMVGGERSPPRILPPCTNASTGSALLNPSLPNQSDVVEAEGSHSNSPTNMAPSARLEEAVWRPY
UniProt P61244: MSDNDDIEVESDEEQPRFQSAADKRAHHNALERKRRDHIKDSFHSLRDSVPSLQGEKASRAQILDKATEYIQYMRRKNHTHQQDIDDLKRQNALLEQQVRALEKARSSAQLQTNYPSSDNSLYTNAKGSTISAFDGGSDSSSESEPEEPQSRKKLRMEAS

No constants are given. Whether binding was seen depends on the method and setting. Binding seen in cells or lysates may run through a third protein. Here binding means that the protein was enriched with, or labelled near, the bait; the list need not be complete.

For “MAX (in CMK cells) (from UniProt P61244 1-160)”, the binding entry is listed as “binds”.

These data come from publication doi:10.1101/2022.03.07.483334.
